# Results deposited as PubChem BioAssay AID743454 (Peter MacCallum Cancer Centre, 2014).
# Screen: 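Knock-downs lowering viability or raising caspase 3/7 activity in vorinostat-treated resistant cells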 (primary screen)
# System: human HCT116-VR colon cancer cells, selected for vorinostat resistance
# Knock-down reagent: siRNA pool against human genes, 40 nM siRNA pool
# Duration: vorinostat for 24 h, read-out about 72 h after transfection
# Treatment: vorinostat at 2.5 µM final
# Measurement: 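Two measures, CellTiter-Fluor viability and luminescent caspase 3/7 activity, each as fold change against same-plate mock wells, mean of duplicates, then screen-wide robust z-score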
# Reading the numbers: viability robust z-score: higher = more viable cells than screen typical; caspase robust z-score: higher = more caspase 3/7 activity than screen typical
# Rule for the call: 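Hits are knock-downs in viability class RV1/RV2 or caspase class CA1/CA2, excluding ones that killed cells in the no-drug cell-count arm; hits then retested with single siRNAs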
# Shown is one part, drawn at random, of about 18,000 reagents tested. In the full data, 450 (2.5%) were called active. 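Single biological run; no consistent viability z cut-off exists, so the class columns, not z-scores, define the calls.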
gene symbol,viability hit class,caspase hit class,viability robust z-score,caspase robust z-score,call
ACTG1,no change,no change,0.34,-0.83,inactive
RPS4Y1,no change,no change,-0.37,-1.09,inactive
DAZL,no change,no change,1.43,-0.36,inactive
TAL1,no change,no change,-0.06,0.26,inactive
MFSD11,no change,no change,-0.12,-0.02,inactive
TRMU,no change,no change,-0.34,0.87,inactive
LOC642219 (retired record),no change,no change,0.26,1.06,inactive
USP17L9P,no change,no change,-0.86,1.69,inactive
ASCL2,no change,no change,1.23,1.87,inactive
IDH3B,no change,no change,-1.13,-1.36,inactive
ZNHIT2,no change,no change,-0.3,0.09,inactive
CALML4,no change,no change,0.46,-0.64,inactive
GYS1,no change,no change,1.6,0.06,inactive
B4GAT1,no change,no change,-0.22,1.37,inactive
GOLGA8A,no change,no change,-0.71,-0.82,inactive
SCGB2A1,no change,no change,1.45,-0.18,inactive
NME8,no change,no change,2.42,-0.61,inactive
HCP5,no change,no change,-1.23,0.26,inactive
RALGPS2,no change,no change,1.42,1.04,inactive
PIGU,no change,no change,-0.54,-0.08,inactive
CST3,no change,no change,0.54,0.28,inactive
DENR,no change,no change,-0.08,-0.16,inactive
GIPC2,no change,no change,-0.15,-0.28,inactive
RAG2,no change,no change,0.22,-0.31,inactive
SCIMP,no change,no change,-0.44,-0.67,inactive
NOXA1,no change,no change,-0.62,-0.56,inactive
LRRC8C,no change,no change,0.92,-0.96,inactive
H3C6,no change,no change,1.38,-0.64,inactive
SNRNP27,no change,no change,-0.5,-0.59,inactive
SAMD14,no change,no change,0.48,0.34,inactive
CTPS2,no change,no change,-0.1,0.7,inactive
RBM43,no change,no change,-0.38,1.39,inactive
PCDHA5,no change,no change,0.97,-0.74,inactive
PCK1,no change,no change,-1.09,-1.07,inactive
ARL6IP4,no change,no change,0.22,0.48,inactive
MRFAP1,no change,no change,0.06,-0.7,inactive
IL5RA,no change,no change,0.55,-0.62,inactive
CNTROB,no change,no change,-0.89,-0.18,inactive
NR1H3,no change,no change,0.36,0.78,inactive
TIPRL,no change,no change,1.06,-0.9,inactive
RTL8B,no change,no change,-1.1,-1.04,inactive
ZNF414,no change,no change,0.12,1.04,inactive
NDNF,no change,no change,-0.09,-0.52,inactive
OR4S2,no change,no change,-1.31,-1.27,inactive
KRTAP4-7,no change,no change,0.11,-0.86,inactive
PGGHG,no change,no change,-0.74,-0.12,inactive
UBE2R2,no change,no change,-0.09,2.72,inactive
GALNT4,no change,no change,1.77,-0.5,inactive
IGFL3,no change,no change,0.62,-0.1,inactive
HS6ST3,no change,no change,-0.04,-0.42,inactive
CCDC17,no change,no change,0.34,0.44,inactive
AGTR1,no change,no change,0.05,-1.07,inactive
TRAF4,no change,no change,-0.94,-0.02,inactive
OR8B12,no change,no change,-0.55,-0.89,inactive
NEU3,no change,no change,-1.14,-0.16,inactive
LHFPL1,no change,no change,0.48,-0.72,inactive
MRPS21,no change,no change,-0.39,1.16,inactive

Look-ups from the list.
SNRNP27, viability hit class = no change
For “caspase robust z-score”, B4GAT1 shows 1.37
Value for GALNT4 in “viability robust z-score”: 1.77
NME8, viability hit class → no change
OR4S2, viability robust z-score → -1.31
ASCL2, caspase robust z-score → 1.87
